According to US20250134817A1, “PHARMACEUTICAL COMPOSITION FOR DRY POWDER INHALATION AND PREPARATION METHOD THEREOF” (ASG INSPIRATION LABORATORY (SINGAPORE) PTE. LTD., priority 2023, published 2025):
At least one structure is not confirmed: it was looked up by name or label, or the drawing left a doubt.

Assay: Shape of particles under electron microscope
Format: physicochemical

Compound: COc1ccc(CN=c2[nH]c(N3CCC[C@H]3CO)ncc2C(=O)NCc2ncccn2)cc1Cl [avanafil, Avanafil]
- shape: irregular block form
